Results from PubChem BioAssay AID2685 (National Center for Advancing Translational Sciences (NCATS), 2010).
This is one part of the list. Further columns of the screen follow, without active or inactive calls. Compounds called inactive in the main read-out are mostly missing here. Words in brackets tell the shape of the fitted curve; partial curves, single points and poor fits give uncertain potencies.

Experiment: qHTS Assay for Lipid Storage Modulators in Drosophila S3 Cells;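 on cell number change: cells counted by Cell Tracker Red CMTPX staining in the red channel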
Conditions: BODIPY lipid droplet fluorescence, 18-24 h; for cell number change: measured here: cell count max response, cells fed with added oleic acid
In short: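 Laser-scanning cytometry quantifies lipid droplet accumulation (500–530 nm total intensity; droplet/cell object ratio) in oleic acid-fed (400 uM added) Drosophila S3 cells treated with a concentration series. 20 uM Triacsin C defined 100% inhibition.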

[1] = measured here: cell number channel AC50, cells fed with added oleic acid
[2] = measured here: lipid fluorescence (Fed channel) AC50, cells fed with added oleic acid

SMILES | cell number change [%] | AC50 [1] | AC50 [2]
Cc1c(C(=O)N2CCC(C)CC2)oc2ccc3c(c12)C(O)CC1(CCCCC1)O3 (centres undefined) | -63.1 | 29.1 µM [falling, single point] | –
COc1ccc(C2C3CCCCC3(O)CCN2C(=O)c2cccs2)cc1 (centres undefined) | – | 0.651 µM [rising, single point] | –
COc1ccc(-c2oc(/N=C/N3CCOCC3)c(C#N)c2-c2ccc(OC)cc2)cc1 | -7.46 | – | –
CCC(C)(c1nnnn1-c1c(C)cccc1C)N(N=O)c1cccc(C(F)(F)F)c1 (centres undefined) | 3.48 | – | 0.326 µM [rising, full curve, poor fit]
CN1C(C(=O)NCc2ccco2)CC2Cn3c(nc4ccccc43)C21 (centres undefined) | 6.67 | – | 4.11 µM [rising, full curve, poor fit]
Cc1cccc(OCC(=O)N2CCN(c3nnc(-c4ccccc4)c4ccccc34)CC2)c1 | 27.7 | – | 23.1 µM [rising, single point]
O=C(Nc1cccnc1)c1cccc(-c2cc3ccccc3oc2=O)c1 | -48 | 29.1 µM [falling, single point] | 29.1 µM [falling, single point]
Cc1onc(-c2c(F)cccc2Cl)c1C(=O)OCC(=O)NC1CC1 | -14.9 | 0.291 µM [falling, partial curve, poor fit] | 0.206 µM [falling, full curve, poor fit]
CCc1nc(N)c(C#N)c(-c2ccncc2)c1C | -1.47 | – | 18.4 µM [rising, single point]
COc1ccc(S(=O)(=O)N(CCc2ccccc2)CC(=O)N2CCOCC2)cc1 | -9.96 | 5.17 µM [rising, single point] | 3.66 µM [rising, partial curve]
CCc1cc(=O)oc2c(C)c(OCC(=O)N3CCCc4ccccc43)ccc12 | 5.96 | – | 5.17 µM [rising, partial curve]
CCOc1ccc(NC(=O)c2cc3ccccc3cc2O)cc1 | -51.3 | 8.2 µM [falling, partial curve, poor fit] | 23.1 µM [falling, partial curve]
CCCCN1CC(=O)N2[C@H]3c4ccccc4OC[C@@H]3[C@H](c3ccccc3)[C@]2(C)C1=O | 0.452 | – | 0.184 µM [rising, full curve]
CCOc1ccc(NC(=O)CNC(=O)c2nn(-c3ccc(OC)c(OC)c3)c(=O)c3ccccc23)cc1 | 184 | 14.6 µM [rising, partial curve] | –
Cc1c(Cl)cccc1NC(=O)Nn1cnnc1 | -0.99 | – | 29.1 µM [rising, single point]
Cc1ccc(CNc2ccc(N3C(=O)CC(C)C3=O)cc2[N+](=O)[O-])cc1 (centres undefined) | -37 | 32.6 µM [falling, single point] | 14.6 µM [falling, partial curve, poor fit]
Cc1ccc(S(=O)(=O)N2CCN(C(=O)c3cc(=O)[nH]c4ccccc34)CC2)c(C)c1 | – | 0.00461 µM [falling, full curve, poor fit] | –
COc1ccc(CNC(=O)c2cc(C)nc3ccccc23)cc1OC | -68.9 | – | –
Cc1nccn1-c1ccc(C=O)cc1 | 16 | – | –
CCOC(=O)c1oc2ccccc2c1N | 21.5 | – | 4.11 µM [falling, full curve]

SMILES | cell number change [%] | AC50 [1] | AC50 [2]
CC(C)CNS(=O)(=O)c1ccc(OCC(=O)Nc2ccc3c(c2)OCO3)c(Cl)c1 | – | 1.84 µM [rising, partial curve, poor fit] | 3.66 µM [rising, partial curve]
O=C(NCc1ccco1)c1cc2cc3ccc(Cl)cc3nc2o1 | – | 6.51 µM [rising, partial curve, poor fit] | 5.8 µM [rising, single point]
Cc1ccc(-c2nc(C#N)c(N3CCC(C(N)=O)CC3)o2)cc1 | 24.8 | – | 0.58 µM [rising, single point]
Fc1ccc2[nH]c3c(N4CCN(c5ccccc5)CC4)ncnc3c2c1 | -41.9 | 18.4 µM [falling, single point] | –
CCOP(=O)(c1c(F)c(F)c(F)c(F)c1F)C(O)c1ccccc1 (centres undefined) | 11.6 | 0.58 µM [falling, full curve] | 0.58 µM [falling, full curve]
CO/N=C(/CS(=O)(=O)c1ccc(Br)cc1)c1ccc(OC)cc1 | – | 6.51 µM [rising, single point] | 9.2 µM [rising, partial curve]
COc1ccc(-c2[nH]n(-c3ccc([N+](=O)[O-])cc3)c(=O)c2C=NCc2ccncc2)cc1 | 0.952 | – | 16.4 µM [rising, single point]
COc1ccccc1N1CCN(C(=O)CSc2ncnc3c2cnn3-c2ccc(C)c(C)c2)CC1 | 10.7 | – | 0.731 µM [rising, full curve]
Cc1csc(SCC(=O)c2c(N)n(CC(C)C)c(=O)n(C)c2=O)n1 | – | 1.3 µM [rising, partial curve] | 2.06 µM [rising, partial curve]
Cc1ccc(C(=O)NC2CCN(CC(=O)Nc3cccc([N+](=O)[O-])c3)CC2)cc1 | 3.68 | – | 1.64 µM [rising, partial curve, poor fit]
CC(Sc1nc(-c2ccccc2)cc(C(F)(F)F)n1)C(=O)O (centres undefined) | 18.3 | – | 0.146 µM [rising, full curve, poor fit]
Cc1ccc(OCC(O)CN2C(=O)NC(C)(C)C2=O)c(C)c1 (centres undefined) | 7.76 | – | 0.0651 µM [falling, full curve, poor fit]
CCOc1ccc(NC(=O)CC2C(=O)N(c3ccccc3)C(=O)N2CCOC)cc1 (centres undefined) | 33.7 | 1.3 µM [rising, full curve, poor fit] | 3.26 µM [rising, full curve]
COc1ccccc1NC(=O)Nc1nc(CC(=O)Nc2cc(F)ccc2F)cs1 | – | – | 6.51 µM [falling, single point]
O=C(CCC(=O)Nc1ccc(F)cc1)N/N=C/c1ccc(F)cc1 | -6.38 | – | 0.00411 µM [rising, full curve, poor fit]
COc1ccc(-n2cc(-c3ccccc3)c3c(=S)nc[nH]c32)cc1 | 16.1 | – | –
O=[N+]([O-])c1ccc(OCCn2cnc3ccccc32)cc1 | 20.8 | – | –
CCOc1cc(/C=N/N=C2/NC(=O)C(CC(=O)O)S2)ccc1OCc1ccc(Cl)cc1 (centres undefined) | 10.3 | 6.51 µM [rising, partial curve, poor fit] | 0.00517 µM [rising, full curve, poor fit]
O=C(COC(=O)c1ccc(Cl)nc1)Nc1ncc(Cl)cc1Cl | 33.2 | 29.1 µM [rising, single point] | –
CN(C(=O)COC(=O)c1ccc(=O)n(Cc2ccccc2)n1)C1CCCCC1 | 0.13 | – | 29.1 µM [rising, single point]

3 compounds out of the list, ordered by molar mass, largest number first:
SMILES | cell number change [%] | AC50 [1] | AC50 [2]
CCOc1ccc(NC(=O)CNC(=O)c2nn(-c3ccc(OC)c(OC)c3)c(=O)c3ccccc23)cc1 | 184 | 14.6 µM [rising, partial curve] | –
CCOc1cc(/C=N/N=C2/NC(=O)C(CC(=O)O)S2)ccc1OCc1ccc(Cl)cc1 (centres undefined) | 10.3 | 6.51 µM [rising, partial curve, poor fit] | 0.00517 µM [rising, full curve, poor fit]
CCOc1ccc(NC(=O)c2cc3ccccc3cc2O)cc1 | -51.3 | 8.2 µM [falling, partial curve, poor fit] | 23.1 µM [falling, partial curve]

Carrying on:

SMILES | cell number change [%] | AC50 [1] | AC50 [2]
CCC(=O)c1ccc(OCC(=O)OCC(=O)Nc2c(C)n(C)n(-c3ccccc3)c2=O)cc1 | – | 0.00411 µM [falling, full curve, poor fit] | –
CN(Cc1cc(=O)[nH]c2ccccc12)C(=O)c1ccccc1 | 12.2 | – | 2.31 µM [falling, partial curve]
O=C(c1ccc(F)c(S(=O)(=O)N2CCOCC2)c1)N(c1ccccc1)c1ccccn1 | 17.8 | – | –
Cc1ccc(S(=O)(=O)Nc2ccccc2CNc2ncc(Br)cc2Br)cc1 | -0.0785 | – | 18.4 µM [falling, single point]
O=C(CSc1nc(N2CCOCC2)nc(N2CCOCC2)n1)Nc1ccc(Cl)cc1Cl | 98.6 | 23.1 µM [rising, partial curve] | –
O=C(O)c1ccc(Nc2nc(-c3ccc([N+](=O)[O-])cc3)nc3ccccc23)cc1 | 7.08 | – | –
CNC(=O)C1CN(C(=O)c2cccc(S(=O)(=O)N3c4ccccc4CC3C)c2)c2ccccc2O1 (centres undefined) | -6.1 | – | 6.51 µM [rising, single point]
CS(=O)(=O)N(CC(=O)Nc1cc(Cl)ccc1Cl)c1ccccc1Cl | – | 2.06 µM [rising, partial curve] | 18.4 µM [rising, partial curve]
Cc1ccc(C(Sc2ccccc2)C(Cn2cncn2)C(=O)c2ccccc2)cc1 (centres undefined) | 1.74 | – | –
COc1cccc(CNC(=O)COc2cc(O)c3c(c2)OC(C)(C)CC3=O)c1 | -0.971 | – | –
Cc1nn(CC2CC2)c(=O)n1-c1ccccc1F | -53.3 | 0.517 µM [falling, full curve] | 13 µM [falling, partial curve]
C[C@@H](C(=O)Nc1nc(-c2ccccn2)cs1)N1C(=O)C2CCCCC2C1=O (some centres undefined) | -10.7 | 1.46 µM [rising, full curve, poor fit] | –
NS(=O)(=O)c1ccc(NC(=O)COC(=O)CCNC(=O)NC23CC4CC(CC(C4)C2)C3)cc1 | 1.45 | – | 0.116 µM [falling, single point]
COc1ccc(OC)c(NC(=O)Nc2nnc(N3CCC(C)CC3)s2)c1 | – | – | 9.2 µM [rising, partial curve]
COc1ccc(S(=O)(=O)Cc2ccc(C(=O)NCc3ccc(F)cc3)o2)cc1 | -6.36 | – | 0.291 µM [rising, partial curve, poor fit]
COc1ccc(OC)c(-c2nc3c(C)n[nH]c(=O)c3[nH]2)c1 | – | – | 0.82 µM [rising, single point]
CCOC(=O)c1cccc(NC(=O)C2CCN(S(=O)(=O)c3cnc[nH]3)CC2)c1 | 11.2 | – | –
O=C(CCn1nc(-c2ccccc2)ccc1=O)NCCCN1CCCCCC1 | 40.3 | 0.291 µM [rising, full curve, poor fit] | –
